Measured values as given in patent US20220411718A1, “DETERGENT COMPOSITIONS” (The Procter & Gamble Company, priority 2021, published 2022).

Test: Laundry test with SPME GC/MS headspace analysis of dried polyester tracers after four wash and dry cycles
Details: for % increase Ex 1 vs Ex C: headspace of perfume ingredient on polyester, with PVP/PVI vs without; for Headspace above dried polyester tracers, Ex A (nil-PVP/PVI): laundered with comparative detergent Ex A (no PVP/PVI copolymer, 1.25 wt % perfume); for Headspace above dried polyester tracers, Ex A (nil-PVP/PVI) / Headspace above dried polyester tracers, Ex 1 (PVP/PVI): 4 wash/dry cycles, 40° C., SPME at 65° C.; for Headspace above dried polyester tracers, Ex 1 (PVP/PVI): laundered with detergent Ex 1 (0.1 wt % PVP/PVI copolymer, 1.25 wt % perfume)

Compound: 3-(3,3-dimethyl-2,3-dihydro-1H-inden-5-yl)propanal mixt. wth 3-(1,1-dimethyl-2,3-dihydro-1H-inden-5-yl)propanal [Neo Hivernal]
- % increase Ex 1 vs Ex C: 333%
- Headspace above dried polyester tracers, Ex A (nil-PVP/PVI): 0.009 nmol/L
- Headspace above dried polyester tracers, Ex 1 (PVP/PVI): 0.030 nmol/L

Compound: C=CCOC(=O)COCCC(C)C [Allyl amyl glycolate, allyl 2-(isopentyloxy)acetate]
- % increase Ex 1 vs Ex C: 806%
- Headspace above dried polyester tracers, Ex A (nil-PVP/PVI): 0.267 nmol/L
- Headspace above dried polyester tracers, Ex 1 (PVP/PVI): 2.153 nmol/L

Compound: CC1=CCC2CC1C2(C)C (stereo not drawn) [Alpha pinene, 2,6,6-trimethylbicyclo(3.1.1)hept-2-ene]
- % increase Ex 1 vs Ex C: 943%
- Headspace above dried polyester tracers, Ex A (nil-PVP/PVI): 0.023 nmol/L
- Headspace above dried polyester tracers, Ex 1 (PVP/PVI): 0.217 nmol/L

Compound: COc1ccc(C=O)cc1 [Anisic aldehyde, 4-methoxybenzaldehyde]
- % increase Ex 1 vs Ex C: 372%
- Headspace above dried polyester tracers, Ex A (nil-PVP/PVI): 0.232 nmol/L
- Headspace above dried polyester tracers, Ex 1 (PVP/PVI): 0.862 nmol/L

Compound: CC(=O)OCc1ccccc1 [Benzyl acetate, benzyl acetate]
- % increase Ex 1 vs Ex C: 424%
- Headspace above dried polyester tracers, Ex A (nil-PVP/PVI): 0.592 nmol/L
- Headspace above dried polyester tracers, Ex 1 (PVP/PVI): 2.510 nmol/L

Compound: COc1ccc2ccccc2c1 [Beta napthol methyl ether, 2-methoxynaphthalene]
- % increase Ex 1 vs Ex C: 421%
- Headspace above dried polyester tracers, Ex A (nil-PVP/PVI): 2.177 nmol/L
- Headspace above dried polyester tracers, Ex 1 (PVP/PVI): 9.173 nmol/L

Compound: CC(C)=CCCC(C)CCO (stereo not shown) [Citronellol, 3,7-dimethyloct-6-en-1-ol]
- % increase Ex 1 vs Ex C: 1124%
- Headspace above dried polyester tracers, Ex A (nil-PVP/PVI): 0.104 nmol/L
- Headspace above dried polyester tracers, Ex 1 (PVP/PVI): 1.169 nmol/L

Compound: CC(C)=CCCC(C)CC#N (stereo not shown) [Citronellyl nitrile, 3,7-dimethyloct-6-enenitrile]
- % increase Ex 1 vs Ex C: 845%
- Headspace above dried polyester tracers, Ex A (nil-PVP/PVI): 0.403 nmol/L
- Headspace above dried polyester tracers, Ex 1 (PVP/PVI): 3.406 nmol/L

Compound: CC1/C=C/CCCCCCCCCCC(=O)C1 (stereo not shown) [Delta muscenone, (E)-3-methylcyclopentadec-4-en-1-one]
- % increase Ex 1 vs Ex C: 666%
- Headspace above dried polyester tracers, Ex A (nil-PVP/PVI): 0.147 nmol/L
- Headspace above dried polyester tracers, Ex 1 (PVP/PVI): 0.979 nmol/L

Compound: CCOC(=O)C1OC1(C)c1ccccc1 (stereo not shown) [Ethyl methyl phenyl glycidate, ethyl 3-methyl-3-phenyloxirane-2-carboxylate]
- Headspace above dried polyester tracers, Ex A (nil-PVP/PVI): 0.000 nmol/L
- Headspace above dried polyester tracers, Ex 1 (PVP/PVI): 0.061 nmol/L

Compound: CCOC(=O)C1=C(C)C=CCC1(C)C [Ethyl safranate, ethyl 2,6,6-trimethylcyclohexa-1,3-diene-1-carboxylate]
- % increase Ex 1 vs Ex C: 2373%
- Headspace above dried polyester tracers, Ex A (nil-PVP/PVI): 0.030 nmol/L
- Headspace above dried polyester tracers, Ex 1 (PVP/PVI): 0.712 nmol/L

Compound: O=C1CCCCCCCCCCCCCCO1 [Exaltolide total, oxacyclohexadecan-2-one]
- % increase Ex 1 vs Ex C: 547%
- Headspace above dried polyester tracers, Ex A (nil-PVP/PVI): 0.231 nmol/L
- Headspace above dried polyester tracers, Ex 1 (PVP/PVI): 1.264 nmol/L

Compound: CC(C)c1cccc(C(C)CC=O)c1 (stereo not shown) [Florhydral, 3-(3-isopropylphenyl)butanal]
- % increase Ex 1 vs Ex C: 713%
- Headspace above dried polyester tracers, Ex A (nil-PVP/PVI): 0.054 nmol/L
- Headspace above dried polyester tracers, Ex 1 (PVP/PVI): 0.385 nmol/L

Compound: CCC(=O)OCC(C)(C)OC(C)C1CCCC(C)(C)C1 (stereo not shown) [Helvetolide, 2-(1-(3,3-dimethylcyclohexyl)ethoxy)-2-methylpropyl propionate]
- % increase Ex 1 vs Ex C: 860%
- Headspace above dried polyester tracers, Ex A (nil-PVP/PVI): 0.020 nmol/L
- Headspace above dried polyester tracers, Ex 1 (PVP/PVI): 0.172 nmol/L

Compound: CC(CC=O)CCCC(C)(C)O (stereo not shown) [Hydroxycitronellal, 7-hydroxy-3,7-dimethyloctanal]
- Headspace above dried polyester tracers, Ex A (nil-PVP/PVI): 0.000 nmol/L
- Headspace above dried polyester tracers, Ex 1 (PVP/PVI): 0.000 nmol/L

Compound: CC(=O)/C=C/C1=C(C)CCCC1(C)C [Ionone beta, (E)-4-(2,6,6-trimethylcyclohex-1-en-1-yl)but-3-en-2-one]
- % increase Ex 1 vs Ex C: 3960%
- Headspace above dried polyester tracers, Ex A (nil-PVP/PVI): 0.015 nmol/L
- Headspace above dried polyester tracers, Ex 1 (PVP/PVI): 0.594 nmol/L

Compound: CCCC(=O)OCCC(C)C [Isoamyl butyrate, isopentyl butyrate]
- % increase Ex 1 vs Ex C: 682%
- Headspace above dried polyester tracers, Ex A (nil-PVP/PVI): 0.585 nmol/L
- Headspace above dried polyester tracers, Ex 1 (PVP/PVI): 3.989 nmol/L

Compound: C=C(C)C1CC=C(C)C(=O)C1 (stereo not shown) [Laevo carvone, 2-methyl-5-(prop-1-en-2-yl)cyclohex-2-en-1-one]
- % increase Ex 1 vs Ex C: 813%
- Headspace above dried polyester tracers, Ex A (nil-PVP/PVI): 0.640 nmol/L
- Headspace above dried polyester tracers, Ex 1 (PVP/PVI): 5.201 nmol/L

Compound: CC(C=O)Cc1ccc(C(C)(C)C)cc1 (stereo not shown) [Lilial, 3-(4-(tert-butyl)phenyl)-2-methylpropanal]
- % increase Ex 1 vs Ex C: 1462%
- Headspace above dried polyester tracers, Ex A (nil-PVP/PVI): 0.065 nmol/L
- Headspace above dried polyester tracers, Ex 1 (PVP/PVI): 0.950 nmol/L

Compound: C=CC(C)(O)CCC=C(C)C (stereo not shown) [Linalool, 3,7-dimethylocta-1,6-dien-3-ol]
- % increase Ex 1 vs Ex C: 1067%
- Headspace above dried polyester tracers, Ex A (nil-PVP/PVI): 0.064 nmol/L
- Headspace above dried polyester tracers, Ex 1 (PVP/PVI): 0.683 nmol/L

Compound: C=CC(C)(CCC=C(C)C)OC(=O)CC (stereo not shown) [Linalyl propionate, 3,7-dimethylocta-1,6-dien-3-yl propionate]
- % increase Ex 1 vs Ex C: 3390%
- Headspace above dried polyester tracers, Ex A (nil-PVP/PVI): 0.031 nmol/L
- Headspace above dried polyester tracers, Ex 1 (PVP/PVI): 1.051 nmol/L

Compound: CC(=O)c1ccc2ccccc2c1 [Methyl Beta-napthyl ketone, 1-(naphthalen-2-yl)ethan-1-one]
- % increase Ex 1 vs Ex C: 425%
- Headspace above dried polyester tracers, Ex A (nil-PVP/PVI): 0.212 nmol/L
- Headspace above dried polyester tracers, Ex 1 (PVP/PVI): 0.901 nmol/L

Compound: COC(=O)c1ccccc1O [Methyl salicylate USP, methyl 2-hydroxybenzoate]
- % increase Ex 1 vs Ex C: 455%
- Headspace above dried polyester tracers, Ex A (nil-PVP/PVI): 2.813 nmol/L
- Headspace above dried polyester tracers, Ex 1 (PVP/PVI): 12.788 nmol/L

Compound: CCCCCCCC=O [Octyl Aldehyde, octanal]
- % increase Ex 1 vs Ex C: 206%
- Headspace above dried polyester tracers, Ex A (nil-PVP/PVI): 1.156 nmol/L
- Headspace above dried polyester tracers, Ex 1 (PVP/PVI): 2.381 nmol/L

Compound: COc1ccc(C)cc1 [Para cresyl methyl ether, 1-methoxy-4-methylbenzene]
- % increase Ex 1 vs Ex C: 356%
- Headspace above dried polyester tracers, Ex A (nil-PVP/PVI): 7.850 nmol/L
- Headspace above dried polyester tracers, Ex 1 (PVP/PVI): 27.974 nmol/L

Compound: CC(C)(O)CCc1ccccc1 [Phenyl ethyl dimethyl carbinol, 2-methyl-4-phenylbutan-2-ol]
- % increase Ex 1 vs Ex C: 1262%
- Headspace above dried polyester tracers, Ex A (nil-PVP/PVI): 0.013 nmol/L
- Headspace above dried polyester tracers, Ex 1 (PVP/PVI): 0.164 nmol/L
